Data from patent US20260049134A1.
Residue numbers refer to the chain shown, from its start. These are yes or no findings as the source states them, for the method shown.

B1: TH9-0022 (antibody, human IgG1, kappa, L234A L235A, V domains shown)
VH: QSLEESGGRLVTPGTPLTLTCTVSGFSLSSYAMNWVRQAPGKGLEWIGIINSYGSTYYASWAKGRFTISKTSTTVDLKITSPTTEDTATYFCARVTYDSYGYGYAPYGMDLWGPGTLVTVSS
VL: LVMTQTPSSTSNAVGGTVTIKCQASQSIGNVLAWYQQKPGQPPKLLIYAASTLASGVPSRVGGSRSGTEYTLTISGVQREDAATYYCLGSDSDSDIAFGGGTELEILR
B2: HW-8 chimeric rabbit-human IgG1 LA/LA/PG (antibody, V domains shown)
VH: QSLEESGGRLVTPGTPLTLTCTVSGFSLSSYAMSWVRQAPGKGLEWIGAISTGGSTTYASWAKGRFTISKTSSTTVDLKMTSLTTEDTATYFCVRHFRLWGPGTLVTISS
VL: QVLTQTPSSVSAAVGGTVTIKCQASQSIGSALAWFQQKPGQRPKLLIYRASNLASGVPSRFKGSGSGTEFALTISGVQREDAATYYCLGGAAAVWAFGAGTNVEIKR
B3: HW-1 chimeric rabbit-human IgG1 LA/LA/PG (antibody, V domains shown)
VH: QSLEESGGGLFKPTDTLTLTCTASGFSLGSSYAISWVRQAPGKELEWIGTIDSGRAYYARWAKSRSTITRNTNENTVTLKMTSLTAADTATYFCARDLIPTYSQDIWGPGTLVTISS
VL: SFVLTQPASVQVNLGQTVSLTCTADTLSRRYASWYQQKPGQAPVLLIYRDTSRPSGVPDRFSGSSSGNTATLTISGAQAGDEADYYCATSDGSGNSYQYVFGGGTQLTVTS
B4: HW-97 chimeric rabbit-human IgG1 LA/LA/PG (antibody, V domains shown)
VH: QKQLVESGGRLVTPGTPLTLTCTVTGIDLSSHGMSWVRQAPGKGLEWIGVIYPSGSTWYASWARGRFTISKTSTTVDLKMTSLTTEDTATHFCARGDVGGADNNIWGPGTLVTVSS
VL: B3 VL with N13D, D25E, R30S, N95S, S111G
B5: HW-101 chimeric rabbit-human IgG1 LA/LA/PG (antibody, V domains shown)
VH: QEQLVESGGRLVTPGTPLTLTCKASGFSLGKYDMSWVRQAPGKGLEWIGTIYAGSGSTWYASWAKGRFTISKTSTTVDLKMTSLTTEDTATYFCARDFLGVNSIWGPGTLVTISS
VL: B3 VL with R30S, G40D, Y48H, S65N, N95S, S96N, Y97F, Q98H, Y99F, S111G
B6: HW-42 chimeric rabbit-human IgG1 LA/LA/PG (antibody, V domains shown)
VH: QSVKESEGGLFKPADTLTLTCTVSGFSLSSNEISWVRQAPGEGLEYIGIIDTGGRAYYAVWARSRSTITRNTNLNTVTLKMTSLTAADTATYFCARGGVDTEWYAFSSWGPGTLVTVPS
VL: B3 VL with Y48F, N68D, N95S, S96N, S111G
B7: HW-25 chimeric rabbit-human IgG1 LA/LA/PG (antibody, V domains shown)
VH: QSLEESGGRLVTPGTPLTLTCTVSGFSLSSYAMGWVRQAPGKGLEWIGIIDSRGSTYYATWAKGRFTISKTSTTVDLKITSPTTEDTATYFCAREDSYYYDSFNLWGPGTLVTVSS
VL: B3 VL with N95S, Y99C, S111G
B8: HW-17 chimeric rabbit-human IgG1 LA/LA/PG (antibody, V domains shown)
VH: QSLGESRGRLVTPDETLTLTCTVSGIDLSSNAMSWVRQAPGEGLEWIGTINTGGRAYYASWAKGRFTISRTSTTVDLKMTSLTTEDTATYFCARERYSDGRAYDIWGPGTLVTISS
VL: B3 VL with R49T, T51S, S52N, V57I, S90D, N95S, S96I, S111G
B9: HW-113 chimeric rabbit-human IgG1 LA/LA/PG (antibody, V domains shown)
VH: QKQLVESGGGLVQPGGSLTLTCTVSGFSLNKYYMGWFRQAPGKGLEWIGVISRSGDTYYSSWAKGRFTISKASTTVDLRITSPTTEDTATYFCARDASSPGFHGDRLDLWGQGTLVTVSS
VL: B3 VL with R30S, S93I, N95S, S96N, Q98L, Y99W, S111G
B10: HW-70 chimeric rabbit-human IgG1 LA/LA/PG (antibody, V domains shown)
VH: QSLEESGGRLVTPGTPLTLTCTVSGFSLSSNAMSWVRQAPGKGLEWIGTIDGYGYTYYASWAKGRFTVSKTSTTVDLKITSPTTEDTATYFCAREIYLGSNFWGPGTLVTISS
VL: B3 VL with S90A, N95S, Y99F, S111G

How the values were obtained:
APP [1] = test: ELISA on coated protein
APP [2] = test: ELISA on coated APP-His

Binder	binding (APP [1])	binding (APP [2])
B1	no binding (tested: 150 ng IgG1 per well)	no binding (tested: 150 ng IgG1 per well)
B2	no binding (tested: 150 ng IgG1 per well)	no binding (tested: 150 ng IgG1 per well)
B3	no binding (tested: 150 ng IgG1 per well)	no binding (tested: 150 ng IgG1 per well)
B4	no binding (tested: 150 ng IgG1 per well)	no binding (tested: 150 ng IgG1 per well)
B5	no binding (tested: 150 ng IgG1 per well)	no binding (tested: 150 ng IgG1 per well)
B6	no binding (tested: 150 ng IgG1 per well)	no binding (tested: 150 ng IgG1 per well)
B7	no binding (tested: 150 ng IgG1 per well)	no binding (tested: 150 ng IgG1 per well)
B8	no binding (tested: 150 ng IgG1 per well)	no binding (tested: 150 ng IgG1 per well)
B9	no binding (tested: 150 ng IgG1 per well)	no binding (tested: 150 ng IgG1 per well)
B10	no binding (tested: 150 ng IgG1 per well)	no binding (tested: 150 ng IgG1 per well)
